Structures can show the parent of a compound that is named as a salt. This is one part of the list. Repeats are few or missing, and single values can be far off.

The test system of this assay is p95-ErbB2-MCF7. The assay can be described thus: perinuclear lysosome accumulation (PNLA, size of LAMP2 puncta), robust Z-score vs plate median; higher = more perinuclear lysosome accumulation (reversal of invasive lysosome distribution). The conditions noted are these: 5 µM; 24 h.
Regarding `Cc1nccc2c1[nH]c1ccccc12` [Harmane hydrochloride], the perinuclear lysosome accumulation is -1.84.
On to `CC[C@@H](C(N)=O)N1CCCC1=O` [Levetiracetam], for which the perinuclear lysosome accumulation was determined as 0.111.
`O=C(O)CCCc1ccc(N(CCCl)CCCl)cc1` [Chlorambucil]: the perinuclear lysosome accumulation was found to be 0.235.
Under `COc1ccc(C(=O)N2CCCC2=O)cc1` [Aniracetam] stands 0.382.
Turning to `C[C@]12CCC(=O)C=C1CC[C@@H]1[C@@H]2C(=O)C[C@]2(C)C(=O)CC[C@@H]12` [Adrenosterone], the perinuclear lysosome accumulation was determined as 0.393.
Under `C[N+]1(C)CCOC(O)(c2ccc(-c3ccc(C4(O)C[N+](C)(C)CCO4)cc3)cc2)C1` (stereo unspecified) [Hemicholinium bromide] stands -0.278.
On to `C[CH2][Hg][S]c1ccccc1C(=O)[O-].[Na+]` [Thimerosal], for which the perinuclear lysosome accumulation was -0.127.
With `CCN[C@@H](C)Cc1cccc(C(F)(F)F)c1` [Dexfenfluramine hydrochloride], the perinuclear lysosome accumulation was 0.461.
Regarding `COc1ccc2[nH]c3c(c2c1)CCN=C3C` [Methoxy-6-harmalan], the perinuclear lysosome accumulation is -0.0901.
Turning to `C[N+]1(C)[C@@H]2CC[C@H]1C[C@@H](OC(=O)C(CO)c1ccccc1)C2` (stereo partly specified) [Methylatropine nitrate], the perinuclear lysosome accumulation came to 0.0246.
As for `CN1C[C@H](C(=O)N[C@]2(C)O[C@@]3(O)[C@@H]4CCCN4C(=O)[C@H](Cc4ccccc4)N3C2=O)C[C@@H]2c3cccc4[nH]cc(c34)C[C@H]21` [Dihydroergotamine tartrate], the perinuclear lysosome accumulation was found to be 0.657.
Under `C[N+](C)(C)CCCCCCCCCC[N+](C)(C)C` [Decamethonium bromide] stands 0.253.
Under `c1ccc2nc(N3CCNCC3)ccc2c1` [Quipazine dimaleate salt] stands 1.65.
In the case of `CC(CCc1ccccc1)NC(C)C(O)c1ccc(O)cc1` (stereo unspecified) [Nylidrin], the perinuclear lysosome accumulation is -2.22.
Regarding `COc1cccc(C2(O)CCCCC2CN(C)C)c1` (stereo unspecified) [Tramadol hydrochloride], the perinuclear lysosome accumulation is 0.253.
Take `CC[C@@]1(O)C(=O)OCc2c1cc1n(c2=O)Cc2cc3ccccc3nc2-1` [Camptothecine (S,+)]: the perinuclear lysosome accumulation was determined as 0.0755.
Consider `CCC(=O)O[C@@](Cc1ccccc1)(c1ccccc1)[C@@H](C)CN(C)C` [Levopropoxyphene napsylate], for which the perinuclear lysosome accumulation was 1.28.
The same measure for `CCCN1C[C@H](CSC)C[C@@H]2c3cccc4[nH]cc(c34)C[C@H]21` [Pergolide mesylate]: 0.104; for `CCC(C)C1O[C@]2(C=C[C@@H]1C)C[C@@H]1CC(C/C=C(\C)[C@@H](OC3C[C@H](OC)[C@@H](OC4C[C@H](OC)[C@@H](O)[C@H](C)O4)[C@H](C)O3)[C@@H](C)/C=C/C=C3\COC4[C@H](O)C(C)=CC(C(=O)O1)[C@]34O)O2` (stereo partly specified) [Avermectin B1a]: 4.48; for `C[C@]12CC[C@H]3[C@@H](CCC4=CC(=O)CC[C@@H]43)[C@@H]1CC[C@@H]2O` [Nandrolone]: -2.31.
Take `COc1ccc(CN2CCNCC2)c(OC)c1OC` [Trimetazidine dihydrochloride]: the perinuclear lysosome accumulation came to 0.0971.
With `CN1[C@@H]2CC[C@H]1C[C@@H](OC(=O)[C@H](CO)c1ccccc1)C2` [Hyoscyamine (L)], the perinuclear lysosome accumulation was -1.62.
Turning to `C[C@H](N)[C@H](O)c1ccc(O)c(O)c1` [Levonordefrin], the perinuclear lysosome accumulation is -0.0462.
With `CC(C)N(CCC(C(N)=O)(c1ccccc1)c1ccccn1)C(C)C` (stereo unspecified) [Disopyramide], the perinuclear lysosome accumulation was -1.24.
On to `O=[N+]([O-])O[C@@H]1CO[C@H]2[C@@H]1OC[C@@H]2O` [Isosorbide mononitrate], for which the perinuclear lysosome accumulation is -1.21.
Turning to `C[C@]12CC[C@@H](O)C[C@@H]1CC[C@@H]1[C@@H]2CC[C@]2(C)C(=O)CC[C@@H]12` [Androsterone], the perinuclear lysosome accumulation was -3.24.
Turning to `CNCC(O)c1ccc(O)cc1` (racemic) [(+,-)-Synephrine], the perinuclear lysosome accumulation was -0.0425.
For the molecule `C1CCc2nnnn2CC1` [Pentylenetetrazole], the perinuclear lysosome accumulation is -1.7.
Turning to `C=C1[C@@H]2CC[C@H]3[C@]4(C)C[C@H](O[C@@H]5O[C@H](CO)[C@@H](OS(=O)(=O)O)[C@H](OS(=O)(=O)O)[C@H]5OC(=O)CC(C)C)C[C@@H](C(=O)O)[C@H]4CC[C@]3(C2)[C@@H]1O` [Atractyloside potassium salt], the perinuclear lysosome accumulation is -0.51.
Regarding `CC(Cc1ccc(O)cc1)NCC(O)c1cc(O)cc(O)c1` (stereo unspecified) [Fenoterol hydrobromide], the perinuclear lysosome accumulation is -0.249.
Consider `CC1=NCCc2c1[nH]c1cc(O)ccc21` [Harmalol hydrochloride dihydrate], for which the perinuclear lysosome accumulation was -0.849.
Under `COc1ccc2c(c1)[C@]13CCCC[C@@H]1[C@H](C2)N(C)CC3` [Dextromethorphan hydrobromide monohydrate] stands 0.494.
Turning to `S=C(NC1CCCCC1)N1CCC(c2cnc[nH]2)CC1` [Thioperamide maleate], the perinuclear lysosome accumulation is -0.558.
Regarding `CC(C)CC(N(C)C)C1(c2ccc(Cl)cc2)CCC1` (stereo unspecified) [Sibutramine HCl], the perinuclear lysosome accumulation was -0.0913.
Take `C#C[C@]1(O)CC[C@H]2[C@@H]3CCC4=CC(=O)CC[C@]4(C)[C@H]3CC[C@@]21C` [Ethisterone]: the perinuclear lysosome accumulation was 0.543.
Take `CC(C)[N+](C)(CCC(C(N)=O)(c1ccccc1)c1ccccc1)C(C)C` [Isopropamide iodide]: the perinuclear lysosome accumulation was 1.06.
Consider `O=C([O-])c1ccccc1-c1c2cc(Br)c(=O)cc-2oc2[c]([Hg+])c([O-])c(Br)cc12.[Na+].[Na+].[OH-]` [Merbromin], for which the perinuclear lysosome accumulation turned out to be 0.681.
Consider `O=c1[nH]c2ccccc2n1CCCN1CCC(n2c(=O)[nH]c3cc(Cl)ccc32)CC1` [Domperidone], for which the perinuclear lysosome accumulation was -0.336.
On to `CN1CCC2(C)c3cc(O)ccc3N(C)C12` (single isomer, unassigned; (-)) [(-)-Eseroline fumarate salt], for which the perinuclear lysosome accumulation was -1.98.
The same measure for `CC(NC(C)(C)C)C(=O)c1cccc(Cl)c1` (stereo unspecified) [Bupropion hydrochloride]: 1.5.
Regarding `CN[C@@H]1[C@@H](O)[C@@H](O[C@@H]2[C@@H](O)[C@H](O[C@H]3O[C@H](CN)CC[C@H]3N)[C@@H](N)C[C@H]2N)OC[C@]1(C)O.CN[C@@H]1[C@@H](O)[C@@H](O[C@@H]2[C@@H](O)[C@H](O[C@H]3O[C@H]([C@@H](C)N)CC[C@H]3N)[C@@H](N)C[C@H]2N)OC[C@]1(C)O.CN[C@@H]1[C@@H](O)[C@@H](O[C@@H]2[C@@H](O)[C@H](O[C@H]3O[C@H]([C@@H](C)NC)CC[C@H]3N)[C@@H](N)C[C@H]2N)OC[C@]1(C)O` [Gentamicine sulfate], the perinuclear lysosome accumulation was -0.742.
On to `O=C1CC[C@@]2(O)[C@H]3Cc4ccc(O)c5c4[C@@]2(CCN3CC2CC2)[C@H]1O5` [Naltrexone hydrochloride dihydrate], for which the perinuclear lysosome accumulation was -0.164.
With `N[C@@H]1C[C@H]1c1ccccc1` [Tranylcypromine hydrochloride], the perinuclear lysosome accumulation was determined as 0.521.
Under `NCC(CC(=O)O)c1ccc(Cl)cc1` (racemic) [Baclofen (R,S)] stands 0.0455; under `C#C[C@]1(O)CC[C@H]2[C@@H]3CCC4=CC(=O)CCC4=C3C=C[C@@]21CC` [Gestrinone], 0.165.
For the molecule `CN1[C@@H]2C[C@@H](OC(=O)[C@H](CO)c3ccccc3)C[C@H]1[C@@H]1O[C@@H]12` [Scopolamine hydrochloride], the perinuclear lysosome accumulation was -0.448.
For `C(#CCN1CCCC1)CN1CCCC1` [Tremorine dihydrochloride], the perinuclear lysosome accumulation is -1.57.
Turning to `C[C@]12CCC(=O)C=C1C=C[C@@H]1[C@@H]2CC[C@@]2(C)[C@H]1CC[C@@]2(O)CCC(=O)O` [Canrenoic acid potassium salt], the perinuclear lysosome accumulation was -1.79.
As to `C=CCN1CC[C@]23c4c5ccc(O)c4O[C@H]2C(=O)CC[C@@]3(O)[C@H]1C5` [Naloxone hydrochloride], the perinuclear lysosome accumulation is 0.0811.
Under `CCCC(C)C1(CC)C(=O)NC(=O)NC1=O` (stereo unspecified) [Pentobarbital] stands -0.914; under `COP(=O)(OC)C(O)C(Cl)(Cl)Cl` (stereo unspecified) [Trichlorfon], -0.104; under `C[C@]12C[C@H]3S[C@H]3C[C@@H]1CC[C@@H]1[C@@H]2CC[C@]2(C)[C@@H](O)CC[C@@H]12` [Epitiostanol], -0.682.
Take `CC(=O)O[C@H]1C[C@@H]2CC[C@@H]3[C@H](CC[C@@]4(C)[C@H]3C[C@H]([N+]3(C)CCCCC3)[C@@H]4OC(C)=O)[C@@]2(C)C[C@@H]1[N+]1(C)CCCCC1` [Pancuronium bromide]: the perinuclear lysosome accumulation worked out at 0.101.
As for `O=c1c2ccccc2[se]n1-c1ccccc1` [Ebselen], the perinuclear lysosome accumulation stood at 1.73.
In the case of `CC[N+]1(C)CCCC(OC(=O)C(O)(c2ccccc2)c2ccccc2)C1` (stereo unspecified) [Pipenzolate bromide], the perinuclear lysosome accumulation is 1.24.
With `CCCCCC[C@H]1C(=O)O[C@H](C)[C@H](NC(=O)c2cccc(NC=O)c2O)C(=O)O[C@@H](C)[C@@H]1OC(=O)CC(C)C` [Antimycin A], the perinuclear lysosome accumulation is -1.82.
With `c1ccc2c(c1)OCC(C1=NCCN1)O2` (stereo unspecified) [Idazoxan hydrochloride], the perinuclear lysosome accumulation was determined as 0.0203.
For the molecule `COc1cc2c(c(OC)c1OC)-c1ccc(OC)c(=O)cc1[C@@H](NC(C)=O)CC2` [Colchicine], the perinuclear lysosome accumulation amounted to 3.93.
Consider `Oc1ccc2c3c1O[C@H]1[C@@H](O)CC[C@@]4(O)[C@@H](C2)N(CC2CCC2)CC[C@]314` [Nalbuphine hydrochloride], for which the perinuclear lysosome accumulation was -0.337.
Under `CN1C[C@H](CNC(=O)OCc2ccccc2)C[C@@H]2c3cccc4c3c(cn4C)C[C@H]21` [Metergoline] stands 0.711; under `CC(=O)O[C@H]1CC[C@@]2(C)C(=CC[C@@H]3[C@@H]2CC[C@]2(C)C(=O)CC[C@@H]32)C1` [Dehydroisoandosterone 3-acetate], 0.335.
For `O=C(NCNC(=O)NC1C(=O)NC(=O)N1CO)NC1C(=O)NC(=O)N1CO` (stereo unspecified) [Imidurea], the perinuclear lysosome accumulation is -2.77.
Under `C[C@]12CC[C@H](O)C[C@H]1CC[C@@H]1[C@@H]2CC[C@]2(C)[C@@H](C3=CC(=O)OC3)CC[C@]12O` [Digitoxigenin] stands 0.605; under `CC(C)c1cccc(C(C)C)c1O` [Propofol], -3.44; under `CCOC(=O)c1cncn1[C@H](C)c1ccccc1` [Etomidate], 1.29.
`CC(O)(CS(=O)(=O)c1ccc(F)cc1)C(=O)Nc1ccc(C#N)c(C(F)(F)F)c1` (stereo unspecified) [Bicalutamide]: the perinuclear lysosome accumulation stood at 1.89.

(Values after the supplement of paper PMC8090911.)
